Assay results reported in publication PMC11487180.
Results are given in words; binding and its absence hold for the method and conditions named. Some binding calls cover weakened binding; strength is not graded here.

Protein sequences, listed by entry. Tags and fused reporters are not part of them.
UniProt Q9NQU5: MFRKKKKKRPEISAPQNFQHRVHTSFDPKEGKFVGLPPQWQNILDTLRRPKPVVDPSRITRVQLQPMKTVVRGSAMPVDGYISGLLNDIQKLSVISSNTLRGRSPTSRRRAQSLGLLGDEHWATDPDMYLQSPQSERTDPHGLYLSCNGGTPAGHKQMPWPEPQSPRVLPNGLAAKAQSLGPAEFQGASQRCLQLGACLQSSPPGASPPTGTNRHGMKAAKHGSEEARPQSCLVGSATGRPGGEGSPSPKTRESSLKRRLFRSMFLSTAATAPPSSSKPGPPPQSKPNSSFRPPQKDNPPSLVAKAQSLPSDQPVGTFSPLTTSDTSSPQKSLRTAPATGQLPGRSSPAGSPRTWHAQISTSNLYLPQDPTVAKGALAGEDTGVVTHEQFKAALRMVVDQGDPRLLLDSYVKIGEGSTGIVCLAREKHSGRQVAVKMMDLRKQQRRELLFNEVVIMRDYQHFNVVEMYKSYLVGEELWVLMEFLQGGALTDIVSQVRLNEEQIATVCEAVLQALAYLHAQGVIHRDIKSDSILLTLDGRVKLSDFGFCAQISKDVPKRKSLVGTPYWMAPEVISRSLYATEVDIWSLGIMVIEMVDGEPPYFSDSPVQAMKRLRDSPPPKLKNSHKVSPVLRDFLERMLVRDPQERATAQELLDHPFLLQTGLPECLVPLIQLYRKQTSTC

Assays:
Assay in all cases: peptide or protein array; HuProt Human Proteome Microarray v4.0 (GST proteins spotted) incubated with recombinant PAK6 in 2% BSA, PBS, 0.05% Tween20 for 2 h at RT; detected with anti-PAK6 and fluorophore conjugated secondary antibody; hits by Z score > 2.5; both purified
CLUAP1 (human) = biological target: T1, CLUAP1 (human) (UniProt Q96AJ1)
T1 sequence: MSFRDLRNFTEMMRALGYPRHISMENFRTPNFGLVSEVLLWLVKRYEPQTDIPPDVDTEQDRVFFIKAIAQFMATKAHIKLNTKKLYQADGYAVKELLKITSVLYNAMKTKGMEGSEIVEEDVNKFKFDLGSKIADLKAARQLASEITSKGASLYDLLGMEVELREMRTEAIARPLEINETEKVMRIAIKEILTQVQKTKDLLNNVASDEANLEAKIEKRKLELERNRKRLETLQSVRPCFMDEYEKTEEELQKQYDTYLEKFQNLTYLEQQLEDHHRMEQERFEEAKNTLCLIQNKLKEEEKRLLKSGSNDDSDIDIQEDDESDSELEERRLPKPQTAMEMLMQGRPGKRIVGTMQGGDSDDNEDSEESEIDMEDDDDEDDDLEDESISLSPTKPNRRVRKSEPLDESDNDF

CCDC40 (human) = biological target: T2, CCDC40 (human) (UniProt Q4G0X9)
T2 sequence: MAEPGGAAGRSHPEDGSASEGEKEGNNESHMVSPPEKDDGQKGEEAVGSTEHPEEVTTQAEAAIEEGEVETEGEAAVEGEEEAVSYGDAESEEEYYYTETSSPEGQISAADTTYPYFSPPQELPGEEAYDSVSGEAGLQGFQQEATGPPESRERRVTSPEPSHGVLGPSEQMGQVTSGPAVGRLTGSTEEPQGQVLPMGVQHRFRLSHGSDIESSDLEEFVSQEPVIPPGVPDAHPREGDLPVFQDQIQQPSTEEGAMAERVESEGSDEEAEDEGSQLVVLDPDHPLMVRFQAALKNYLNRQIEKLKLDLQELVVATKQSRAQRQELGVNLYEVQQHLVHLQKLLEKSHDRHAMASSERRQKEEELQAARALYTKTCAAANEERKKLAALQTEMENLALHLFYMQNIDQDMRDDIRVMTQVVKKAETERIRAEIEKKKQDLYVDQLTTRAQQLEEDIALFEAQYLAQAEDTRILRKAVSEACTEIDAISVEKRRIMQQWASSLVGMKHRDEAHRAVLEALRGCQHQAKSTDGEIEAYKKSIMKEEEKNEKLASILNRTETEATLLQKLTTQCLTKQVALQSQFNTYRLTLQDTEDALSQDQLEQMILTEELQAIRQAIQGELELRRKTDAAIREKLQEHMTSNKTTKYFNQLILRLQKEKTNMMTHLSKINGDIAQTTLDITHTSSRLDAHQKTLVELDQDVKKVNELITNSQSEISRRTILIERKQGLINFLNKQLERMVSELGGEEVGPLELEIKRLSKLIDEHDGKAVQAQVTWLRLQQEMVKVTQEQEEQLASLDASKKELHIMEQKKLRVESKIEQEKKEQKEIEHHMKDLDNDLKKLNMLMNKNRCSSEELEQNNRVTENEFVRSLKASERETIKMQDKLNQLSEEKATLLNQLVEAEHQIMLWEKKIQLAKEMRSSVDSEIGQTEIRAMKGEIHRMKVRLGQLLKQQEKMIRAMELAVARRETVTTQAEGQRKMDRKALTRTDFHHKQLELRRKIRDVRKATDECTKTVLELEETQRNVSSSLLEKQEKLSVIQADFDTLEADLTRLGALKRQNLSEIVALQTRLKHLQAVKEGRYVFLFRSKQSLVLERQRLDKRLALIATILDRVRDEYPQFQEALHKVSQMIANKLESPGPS

DRC3 (human) = biological target: T3, DRC3 (human) (UniProt Q9H069)
T3 sequence: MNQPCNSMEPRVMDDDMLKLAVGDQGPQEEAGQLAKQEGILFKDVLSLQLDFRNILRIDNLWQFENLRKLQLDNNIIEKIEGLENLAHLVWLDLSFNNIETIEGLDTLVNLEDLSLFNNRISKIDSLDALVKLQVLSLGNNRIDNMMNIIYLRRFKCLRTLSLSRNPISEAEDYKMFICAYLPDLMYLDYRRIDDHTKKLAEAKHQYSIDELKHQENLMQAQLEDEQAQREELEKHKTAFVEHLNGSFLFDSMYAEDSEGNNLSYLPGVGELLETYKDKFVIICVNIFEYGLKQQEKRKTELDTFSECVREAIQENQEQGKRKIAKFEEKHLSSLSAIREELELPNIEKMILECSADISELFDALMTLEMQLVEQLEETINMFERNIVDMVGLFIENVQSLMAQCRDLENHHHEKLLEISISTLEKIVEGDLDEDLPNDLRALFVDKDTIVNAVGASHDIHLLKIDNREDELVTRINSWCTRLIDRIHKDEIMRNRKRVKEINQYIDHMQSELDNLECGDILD

ENTR1 (human) = biological target: T4, ENTR1 (human) (UniProt Q96C92)
T4 sequence: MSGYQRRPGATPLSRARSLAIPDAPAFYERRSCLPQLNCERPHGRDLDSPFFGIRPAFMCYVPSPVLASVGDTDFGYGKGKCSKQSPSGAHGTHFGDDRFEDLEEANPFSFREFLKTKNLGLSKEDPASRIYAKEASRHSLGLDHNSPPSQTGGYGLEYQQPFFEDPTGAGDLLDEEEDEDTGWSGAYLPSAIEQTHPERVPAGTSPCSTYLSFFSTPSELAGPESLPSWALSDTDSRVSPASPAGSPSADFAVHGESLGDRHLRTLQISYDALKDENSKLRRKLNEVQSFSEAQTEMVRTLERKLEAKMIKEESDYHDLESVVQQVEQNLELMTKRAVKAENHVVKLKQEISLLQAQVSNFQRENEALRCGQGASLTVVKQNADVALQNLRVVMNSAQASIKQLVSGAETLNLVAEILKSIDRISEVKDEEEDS

SUFU (human) = biological target: T5, SUFU (human) (UniProt Q9UMX1)
T5 sequence: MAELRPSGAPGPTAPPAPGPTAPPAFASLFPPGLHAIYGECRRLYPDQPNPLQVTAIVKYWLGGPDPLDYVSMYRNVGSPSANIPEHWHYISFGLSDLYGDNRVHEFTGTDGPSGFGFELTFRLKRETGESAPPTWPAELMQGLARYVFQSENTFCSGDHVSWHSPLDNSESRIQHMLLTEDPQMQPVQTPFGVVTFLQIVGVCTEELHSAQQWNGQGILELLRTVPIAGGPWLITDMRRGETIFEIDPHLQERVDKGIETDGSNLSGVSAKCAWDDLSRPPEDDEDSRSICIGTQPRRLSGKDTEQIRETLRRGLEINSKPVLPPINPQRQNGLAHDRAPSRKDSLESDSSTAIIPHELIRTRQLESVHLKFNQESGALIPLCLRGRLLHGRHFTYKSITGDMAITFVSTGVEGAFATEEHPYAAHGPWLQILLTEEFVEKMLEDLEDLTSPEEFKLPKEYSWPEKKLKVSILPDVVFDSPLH

binding (CLUAP1 (human)): binds
binding (CCDC40 (human)): binds
binding (DRC3 (human)): binds
binding (ENTR1 (human)): binds
binding (SUFU (human)): binds
Substance: Recombinant full-length human PAK6 (ThermoFisher, #PR5307A) (from UniProt Q9NQU5 1-681) (enzyme)
